Some results were stated once for a whole list of compounds, not compound by compound.
Tested on: G-quadruplex in promoter region of the c-myc gene (NHE III1 segment)
Test: Dual luciferase analysis with plasmid pGL4.10-myc (luc2) in HGC-27 cells
Format: cell-based, human
Conditions: tab. 5 (50 μmol·l^−1)
Text: A dual luciferase analysis was used to determine the degree of stabilization of G-quadruplex in a promoter region of the c-myc gene on cellular level. Stabilization of G-quadruplex is expressed as the ratio of expression of two luciferases (firefly and Renilla) from the co-transfected vectors pGL4.10-myc (luc2) and pRL-TK (Renilla) into a cell line HGC-27 expressing c-myc protein. Expression of the reporter gene (firefly luciferase) from pGL4.10-myc vector is controlled by the c-myc regulatory region of a length of 860 by (in the range from −306 to +554). The inserted sequence contains NHE III1 segment which forms G-quadruplex [Yang, D. et al. (2010) Future Med Chem., 2, 619], and is responsible for as much as 90% of the transcriptional activity of the c-myc gene.
Level of expression of firefly luciferase reporter gene corresponds to promoter activity of c-myc and thus to the degree of stabilization of the G-quadruplex. The signal is normalized to Renilla luciferase expression from pRL-TK vector under the control of a constitutive viral thymidine kinase (HSV-TK) promoter. […] Quantity of firefly and Renilla luciferases in the samples was determined 24 hours after transfection. […] Luminescence was measured using a luminometer EnSpire Alpha Plate Reader. […]

2,13-bis((E)-2-(5-bromothiophen-2-yl)vinyl-8,9-dimethyl-6,7,10,11-tetrahydrodipyrido[2,1-a: 1′,2′-k][2,9]phenanthroline-5,12-diium trifluoromethanesulfonate [MJB-C5-3]
inhibition of expression of firefly luciferase as compared to control: more than 20%
